This is one part of the list.
Key:
Test in all cases: glycan array binding signal (z-score within array); higher = stronger binding
Conditions in all cases: glycan notation: IUPAC condensed, linker removed
[1] = molecular target: Gal(b1-3)GlcNAc(b1-6)GalNAc
Method in brief: (§1)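 The Consortium for Functional Glycomics database supplied 3228 glycan arrays, of which those lacking an available protein sequence were dropped. The binding signal, a within-array Z-score, was averaged across arrays of the same protein sequence and across linkers. Negative scores can be read as non-binding.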

[2] = molecular target: Gal(b1-3)GlcNAc(b1-6)[Gal(b1-3)]GalNAc
Method in brief: as §1

Gal(b1-3)GlcNAc6S = molecular target: Gal(b1-3)GlcNAc6S
Method in brief: as §1

[3] = molecular target: Gal(b1-3)[Fuc(a1-4)]GlcNAc
Method in brief: as §1

[4] = molecular target: Gal(b1-3)[Fuc(a1-4)]GlcNAc(b1-2)Man
Method in brief: as §1

[5] = molecular target: Gal(b1-3)[Fuc(a1-4)]GlcNAc(b1-2)Man(a1-3)[Gal(b1-3)[Fuc(a1-4)]GlcNAc(b1-2)Man(a1-6)]Man(b1-4)GlcNAc(b1-4)[Fuc(a1-6)]GlcNAc
Method in brief: as §1

[6] = molecular target: Gal(b1-3)[Fuc(a1-4)]GlcNAc(b1-3)Gal(b1-3)[Fuc(a1-4)]GlcNAc
Method in brief: as §1

[7] = molecular target: Gal(b1-3)[Fuc(a1-4)]GlcNAc(b1-3)Gal(b1-4)[Fuc(a1-3)]GlcNAc
Method in brief: as §1

[8] = molecular target: Gal(b1-3)[Fuc(a1-4)]GlcNAc(b1-6)GalNAc
Method in brief: as §1

[9] = molecular target: Gal(b1-3)[GlcNAc(b1-6)]GalNAc
Method in brief: as §1

[10] = molecular target: Gal(b1-3)[Neu5Ac(a2-6)]GalNAc
Method in brief: as §1

[11] = molecular target: Gal(b1-3)[Neu5Ac(a2-6)]GlcNAc(b1-4)Gal(b1-4)Glc
Method in brief: as §1

[12] = molecular target: Gal(b1-3)[Neu5Ac(b2-6)]GalNAc
Method in brief: as §1

Gal(b1-4)Gal = molecular target: Gal(b1-4)Gal
Method in brief: as §1

[13] = molecular target: Gal(b1-4)GalNAc(a1-3)[Fuc(a1-2)]Gal(b1-4)GlcNAc
Method in brief: as §1

[14] = molecular target: Gal(b1-4)GalNAc(b1-3)[Fuc(a1-2)]Gal(b1-4)GlcNAc
Method in brief: as §1

Gal(b1-4)Glc = molecular target: Gal(b1-4)Glc
Method in brief: as §1

Gal(b1-4)Glc6S = molecular target: Gal(b1-4)Glc6S
Method in brief: as §1

Gal(b1-4)GlcNAc = molecular target: Gal(b1-4)GlcNAc
Method in brief: as §1

[15] = molecular target: Gal(b1-4)GlcNAc(a1-6)Gal(b1-4)GlcNAc
Method in brief: as §1

Gal(b1-4)GlcNAc(b1-2)Man = molecular target: Gal(b1-4)GlcNAc(b1-2)Man
Method in brief: as §1

[16] = molecular target: Gal(b1-4)GlcNAc(b1-2)Man(a1-3)Man(b1-4)GlcNAc(b1-4)GlcNAc
Method in brief: as §1

[17] = molecular target: Gal(b1-4)GlcNAc(b1-2)Man(a1-3)[Gal(b1-4)GlcNAc(b1-2)Man(a1-6)]Man(b1-4)GlcNAc(b1-4)GlcNAc
Method in brief: as §1

[18] = molecular target: Gal(b1-4)GlcNAc(b1-2)Man(a1-3)[Gal(b1-4)GlcNAc(b1-2)Man(a1-6)]Man(b1-4)GlcNAc(b1-4)[Fuc(a1-6)]GlcNAc
Method in brief: as §1

[19] = molecular target: Gal(b1-4)GlcNAc(b1-2)Man(a1-3)[Gal(b1-4)GlcNAc(b1-2)Man(a1-6)][Gal(b1-4)GlcNAc(b1-4)]Man(b1-4)GlcNAc(b1-4)[Fuc(a1-6)]GlcNAc
Method in brief: as §1

[20] = molecular target: Gal(b1-4)GlcNAc(b1-2)Man(a1-3)[Gal(b1-4)GlcNAc(b1-2)Man(a1-6)][GlcNAc(b1-4)]Man(b1-4)GlcNAc(b1-4)[Fuc(a1-6)]GlcNAc
Method in brief: as §1

[21] = molecular target: Gal(b1-4)GlcNAc(b1-2)Man(a1-3)[GlcNAc(b1-2)Man(a1-6)]Man(b1-4)GlcNAc(b1-4)GlcNAc
Method in brief: as §1

[22] = molecular target: Gal(b1-4)GlcNAc(b1-2)Man(a1-3)[GlcNAc(b1-4)][Gal(b1-4)GlcNAc(b1-2)Man(a1-6)]Man(b1-4)GlcNAc(b1-4)GlcNAc
Method in brief: as §1

[23] = molecular target: Gal(b1-4)GlcNAc(b1-2)Man(a1-3)[Man(a1-6)]Man(b1-4)GlcNAc(b1-4)GlcNAc
Method in brief: as §1

[24] = molecular target: Gal(b1-4)GlcNAc(b1-2)Man(a1-6)Man(b1-4)GlcNAc(b1-4)GlcNAc
Method in brief: as §1

[25] = molecular target: Gal(b1-4)GlcNAc(b1-2)Man(a1-6)[GlcNAc(b1-2)Man(a1-3)]Man(b1-4)GlcNAc(b1-4)GlcNAc
Method in brief: as §1

[26] = molecular target: Gal(b1-4)GlcNAc(b1-2)Man(a1-6)[Man(a1-3)]Man(b1-4)GlcNAc(b1-4)GlcNAc
Method in brief: as §1

[27] = molecular target: Gal(b1-4)GlcNAc(b1-2)[Gal(b1-4)GlcNAc(b1-4)]Man(a1-3)[Gal(b1-4)GlcNAc(b1-2)Man(a1-6)]Man(b1-4)GlcNAc(b1-4)GlcNAc
Method in brief: as §1

[28] = molecular target: Gal(b1-4)GlcNAc(b1-2)[Gal(b1-4)GlcNAc(b1-4)]Man(a1-3)[Gal(b1-4)GlcNAc(b1-2)[Gal(b1-4)GlcNAc(b1-6)]Man(a1-6)]Man(b1-4)GlcNAc(b1-4)GlcNAc
Method in brief: as §1

[29] = molecular target: Gal(b1-4)GlcNAc(b1-2)[Gal(b1-4)GlcNAc(b1-4)]Man(a1-3)[GlcNAc(b1-4)][Gal(b1-4)GlcNAc(b1-2)Man(a1-6)]Man(b1-4)GlcNAc(b1-4)GlcNAc
Method in brief: as §1

[30] = molecular target: Gal(b1-4)GlcNAc(b1-2)[Gal(b1-4)GlcNAc(b1-4)]Man(a1-3)[GlcNAc(b1-4)][Gal(b1-4)GlcNAc(b1-2)[Gal(b1-4)GlcNAc(b1-6)]Man(a1-6)]Man(b1-4)GlcNAc(b1-4)GlcNAc
Method in brief: as §1

[31] = molecular target: Gal(b1-4)GlcNAc(b1-2)[Gal(b1-4)GlcNAc(b1-6)]Man(a1-6)[Gal(b1-4)GlcNAc(b1-2)Man(a1-3)]Man(b1-4)GlcNAc(b1-4)GlcNAc
Method in brief: as §1

[32] = molecular target: Gal(b1-4)GlcNAc(b1-2)[Gal(b1-4)GlcNAc(b1-6)]Man(a1-6)[Gal(b1-4)GlcNAc(b1-2)Man(a1-3)]Man(b1-4)GlcNAc(b1-4)[Fuc(a1-6)]GlcNAc
Method in brief: as §1

[33] = molecular target: Gal(b1-4)GlcNAc(b1-2)[Gal(b1-4)GlcNAc(b1-6)]Man(a1-6)[GlcNAc(b1-4)][Gal(b1-4)GlcNAc(b1-2)Man(a1-3)]Man(b1-4)GlcNAc(b1-4)GlcNAc
Method in brief: as §1

[34] = molecular target: Gal(b1-4)GlcNAc(b1-2)[Gal(b1-4)GlcNAc(b1-6)]Man(a1-6)[GlcNAc(b1-4)][Gal(b1-4)GlcNAc(b1-2)[Gal(b1-4)GlcNAc(b1-4)]Man(a1-3)]Man(b1-4)GlcNAc(b1-4)[Fuc(a1-6)]GlcNAc
Method in brief: as §1

[35] = molecular target: Gal(b1-4)GlcNAc(b1-3)Gal(b1-3)GalNAc
Method in brief: as §1

[36] = molecular target: Gal(b1-4)GlcNAc(b1-3)Gal(b1-3)GlcNAc
Method in brief: as §1

[37] = molecular target: Gal(b1-4)GlcNAc(b1-3)Gal(b1-4)Glc
Method in brief: as §1

[38] = molecular target: Gal(b1-4)GlcNAc(b1-3)Gal(b1-4)GlcNAc
Method in brief: as §1

[39] = molecular target: Gal(b1-4)GlcNAc(b1-3)Gal(b1-4)GlcNAc(b1-2)Man(a1-3)[Gal(b1-4)GlcNAc(b1-3)Gal(b1-4)GlcNAc(b1-2)Man(a1-6)]Man(b1-4)GlcNAc(b1-4)GlcNAc
Method in brief: as §1

B1: BIp1-His (Cryptococcus neoformans) (protein)
chain: MFTKIFVALFAATAVLSAPVESAEKRITHTGRATFYSPSVGIGACGWQNTDEELVVALNAPQYALNADHNCGQSVRITNEQNGNQEIAKVVDLCPGCNDGDLDMSPALFGALNNNDFDQGVFPISWNFLPRDDTSSSN
In the case of B1, the “glycan array binding signal (z-score)” value [1] is reported as -0.466, the “glycan array binding signal (z-score)” value [2] is reported as -0.365 and the “glycan array binding signal (z-score)” value (Gal(b1-3)GlcNAc6S) is reported as -0.273. The “glycan array binding signal (z-score)” value [3] was -0.995, the “glycan array binding signal (z-score)” value [4] was 0.756 and the “glycan array binding signal (z-score)” value [5] was 0.59. For the same binder, the “glycan array binding signal (z-score)” value [6] was -0.63, the “glycan array binding signal (z-score)” value [7] was -0.93 and the “glycan array binding signal (z-score)” value [8] was -0.396. For the same binder, the “glycan array binding signal (z-score)” value [9] was 0.127, the “glycan array binding signal (z-score)” value [10] was -0.702 and the “glycan array binding signal (z-score)” value [11] was -0.853. The “glycan array binding signal (z-score)” value [12] was -0.403, the “glycan array binding signal (z-score)” value (Gal(b1-4)Gal) was -0.815 and the “glycan array binding signal (z-score)” value [13] was -0.728. The “glycan array binding signal (z-score)” value [14] was -0.286, the “glycan array binding signal (z-score)” value (Gal(b1-4)Glc) was 0.274 and the “glycan array binding signal (z-score)” value (Gal(b1-4)Glc6S) was -0.16. The “glycan array binding signal (z-score)” value (Gal(b1-4)GlcNAc) was -0.582, the “glycan array binding signal (z-score)” value [15] was -0.263 and the “glycan array binding signal (z-score)” value (Gal(b1-4)GlcNAc(b1-2)Man) was 1.27. The “glycan array binding signal (z-score)” value [16] was 0.081, the “glycan array binding signal (z-score)” value [17] was -0.927 and the “glycan array binding signal (z-score)” value [18] was 1.57. The “glycan array binding signal (z-score)” value [19] was -1.35, the “glycan array binding signal (z-score)” value [20] was -1.5 and the “glycan array binding signal (z-score)” value [21] was -1.02. The “glycan array binding signal (z-score)” value [22] was -0.105, the “glycan array binding signal (z-score)” value [23] was -0.834 and the “glycan array binding signal (z-score)” value [24] was 0.116. For the same binder, the “glycan array binding signal (z-score)” value [25] was -0.958, the “glycan array binding signal (z-score)” value [26] was 0.81 and the “glycan array binding signal (z-score)” value [27] was 0.209. The “glycan array binding signal (z-score)” value [28] was -0.558, the “glycan array binding signal (z-score)” value [29] was -0.26 and the “glycan array binding signal (z-score)” value [30] was 0.415. The “glycan array binding signal (z-score)” value [31] was 0.266, the “glycan array binding signal (z-score)” value [32] was 0.608 and the “glycan array binding signal (z-score)” value [33] was -0.436. The “glycan array binding signal (z-score)” value [34] was -0.02, the “glycan array binding signal (z-score)” value [35] was -0.667 and the “glycan array binding signal (z-score)” value [36] was -0.008. For the same binder, the “glycan array binding signal (z-score)” value [37] was -0.068, the “glycan array binding signal (z-score)” value [38] was -0.127 and the “glycan array binding signal (z-score)” value [39] was 1.7.

Source: the supplement of paper PMC8728848
